Data published in PMC8138011.
These are yes or no findings as the source states them, for the method shown. Binding seen in cells or lysates may run through a third protein. Some results given as binding are weak or reduced against the parent protein; the word gives no strength. Tags and fused reporters may be left off the sequences shown.

By UniProt entry, the sequences of proteins in these tests, tags left out.
UniProt P35998: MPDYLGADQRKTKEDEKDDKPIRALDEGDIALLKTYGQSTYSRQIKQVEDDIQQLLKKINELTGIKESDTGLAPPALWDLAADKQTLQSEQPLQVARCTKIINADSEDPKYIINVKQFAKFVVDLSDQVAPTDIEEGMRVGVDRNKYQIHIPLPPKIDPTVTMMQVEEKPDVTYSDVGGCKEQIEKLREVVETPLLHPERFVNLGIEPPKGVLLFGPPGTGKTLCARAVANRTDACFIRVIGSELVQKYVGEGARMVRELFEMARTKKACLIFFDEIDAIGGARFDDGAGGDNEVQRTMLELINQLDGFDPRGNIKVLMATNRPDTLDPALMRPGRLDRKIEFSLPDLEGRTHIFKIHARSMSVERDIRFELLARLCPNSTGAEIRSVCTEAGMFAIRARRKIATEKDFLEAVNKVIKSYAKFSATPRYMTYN

Target: PSMC2 (proteasome 26 S subunit ATPase 2), Flag-labelled (UniProt P35998)
Assay: co-IP; GBC-SD cells overexpressing Flag-labelled PSMC2 or HA-labelled GNG4; immunocomplexes obtained with antibodies of Flag or HA and analysed with corresponding antibodies

B1: GNG4 (G protein subunit gamma 4), HA-labelled (protein, UniProt P50150 1-75)
chain: MKEGMSNNSTTSISQARKAVEQLKMEACMDRVKVSQAAADLLAYCEAHVREDPLIIPVPASENPFREKKFFCTIL
- binding: binds
